End groups of sequences in plain letters are not given here.

The series in a line: general procedure: Fmoc solid-phase peptide synthesis. To be noted: whole synthesis.
On to SELPAGHGLNVNLTS, for which the isolated yield worked out at 34%.

For GLNVNTLSYGDLAAD, the isolated yield is given as 23%.

Sequence DGSVVVNKVSELPAGH displayed an isolated yield of 31%.
